From US20230146455A1 (Yuyu Pharma, Inc., priority 2020, published 2023)

Key:
Type in all cases: cell-based, human
TNF-alpha = test: Example 9 Luminex, LPS hPBMCs: TNF-alpha
Description: (§1) Treatment Human PBMCs were pretreated with YY-101, YDE-011 and YDE-043 or reference compound; Xiidra® at various concentration (ranging from 1 nM to 100 uM) for 2 h before stimulation. An equal volume of 0.5% DMSO was used as a vehicle control. Then, the cells were treated with LPS at 5 ug/ml. The supernatants from treated cells were harvested at 24 h and placed in a 96 well for Luminex cytokine & chemokine profiling using a Luminex 200 multiplex assay (Luminex; R&D system, USA).
(§2) The main study arm with triplicate wells per group in a 24-well plate: • 1. Blank • 2. PBMC: 0.5% DMSO • 3. PBMC+LPS (5 ug/ml) • 4. PBMC+YY-101 100 uM • 5. PBMC+YY-101 10 uM • 6. PBMC+YY-101 1 uM • 7. PBMC+YY-101 0.1 uM • 8. PBMC+YY-101 0.01 uM • 9. PBMC+LPS (5 ug/ml)+Xiidra®100 uM • 10. PBMC+LPS (5 ug/ml)+Xiidra® 10 uM • 11. PBMC+LPS (5 ug/ml)+Xiidra® 1 uM • 12. PBMC+LPS (5 ug/ml)+Xiidra®0.1 uM • 13. PBMC+LPS (5 ug/ml)+Xiidra®0.01 uM • 14. PBMC+LPS (5 ug/ml)+Xiidra®0.001 uM • 15. PBMC+LPS (5 ug/ml)+YY-101 100 uM • 16. PBMC+LPS (5 ug/ml)+YY-101 10 uM • 17. PBMC+LPS (5 ug/ml)+YY-101 1 uM • 18. PBMC+LPS (5 ug/ml)+YY-101 0.1 uM • 19. PBMC+LPS (5 ug/ml)+YY-101 0.01 uM • 20. PBMC+LPS (5 ug/ml)+YY-101 0.001 uM • 21. PBMC+LPS (5 ug/ml)+YDE-011 100 uM • 22. PBMC+LPS (5 ug/ml)+YDE-011 10 uM • 23. PBMC+LPS (5 ug/ml)+YDE-011 1 uM • 24. PBMC+LPS (5 ug/ml)+YDE-011 0.1 uM • 25. PBMC+LPS (5 ug/ml)+YDE-011 0.01 uM • 26. PBMC+LPS (5 ug/ml)+YDE-011 0.001 uM • 27. PBMC+LPS (5 ug/ml)+YDE-043 100 uM • 28. PBMC+LPS (5 ug/ml)+YDE-043 10 uM • 29. PBMC+LPS (5 ug/ml)+YDE-043 1 uM • 30. PBMC+LPS (5 ug/ml)+YDE-043 0.1 uM • 31. PBMC+LPS (5 ug/ml)+YDE-043 0.01 uM • 32. PBMC+LPS (5 ug/ml)+YDE-043 0.001 uM
(§3) Multiplex assay was used to measure 30 cytokines and chemokines. The 1:2, 1:10 and 1:200 diluted cell supernatant and serial dilution of the standard were dispensed into a 96 well plate at 50 ul/well. Then, the pre-mixed cocktail of antibody-coated magnetic beads was dispensed at 50 ul/well and incubated at room temperature for 2 h in a horizontal orbital microplate shaker at 800±500 rpm. The beads were washed using a magnetic device to prevent loss. The biotin-antibody was dispensed in 50 ul of each well and incubated at room temperature for 1 h in a shaker at 800±500 rpm. After washing, streptavidin-PE was added at 50 ul/well and incubated at room temperature for 30 min in a shaker under the same conditions. Finally, after washing, wash buffer (100 ul/well) was added to the plate and incubated in a shaker for 2 min. The Luminex™ 200 setting were set according to the manufacturer's protocol. The data was calculated with a standard five-parameter logistic nonlinear regression analysis of the data (xPonent software 4.2, USA). The levels of cytokine/chemokine are normalized to the live cell counts (1×10^5 cells/mL) and presented as concentrations per mL (pg/mL or ng/mL).

IL-1 alpha = test: Example 9 Luminex, LPS hPBMCs: IL-1 alpha; conditions: Bead IL-1 alpha, replicates and Mean
Description: as §1, §2, §3

MMP-9 = test: Example 9 Luminex, LPS hPBMCs: MMP-9; conditions: no LPS
Description: as §1, §2, §3

CC(C)C[C@H](NC(=O)CNC(=O)[C@H](CC(=O)O)NC(=O)[C@H](CCC(N)=O)NC(=O)CNC(=O)[C@@H]1C[C@@H](O)CN1)C(=O)N[C@@H](C)C(=O)NCC(=O)N1CCC[C@H]1C(=O)N[C@@H](CCCCN)C(=O)O [YY-101] (H-[Hyp]GQDGLAGPK-OH; N-terminus and C-terminus assumed)
MFI, Bead name: TNF-alpha (TNF-alpha; PBMC + LPS(5 ug/ml) + test article 0.001 uM, Mean): 820.5
MFI, Bead name: TNF-alpha (TNF-alpha; PBMC + LPS(5 ug/ml) + test article 0.001 uM, individual replicates (1st, 2nd, 3rd)): 854.5 and 878.0 and 729.0
MFI, Bead name: TNF-alpha (TNF-alpha; PBMC + LPS(5 ug/ml) + test article 0.01 uM, Mean): 922.8
MFI, Bead name: TNF-alpha (TNF-alpha; PBMC + LPS(5 ug/ml) + test article 0.01 uM, individual replicates (1st, 2nd, 3rd)): 946.5 and 935.0 and 887.0
MFI, Bead name: TNF-alpha (TNF-alpha; PBMC + LPS(5 ug/ml) + test article 0.1 uM, Mean): 957.2
MFI, Bead name: TNF-alpha (TNF-alpha; PBMC + LPS(5 ug/ml) + test article 0.1 uM, individual replicates (1st, 2nd, 3rd)): 937.5 and 963.0 and 971.0
MFI, Bead name: TNF-alpha (TNF-alpha; PBMC + LPS(5 ug/ml) + test article 1 uM, Mean): 859.5
MFI, Bead name: TNF-alpha (TNF-alpha; PBMC + LPS(5 ug/ml) + test article 1 uM, individual replicates (1st, 2nd, 3rd)): 920.0 and 844.5 and 814.0
MFI, Bead name: TNF-alpha (TNF-alpha; PBMC + LPS(5 ug/ml) + test article 10 uM, Mean): 922.8
MFI, Bead name: TNF-alpha (TNF-alpha; PBMC + LPS(5 ug/ml) + test article 10 uM, individual replicates (1st, 2nd, 3rd)): 921.0 and 942.5 and 905.0
MFI, Bead name: TNF-alpha (TNF-alpha; PBMC + LPS(5 ug/ml) + test article 100 uM, Mean): 823.8
MFI, Bead name: TNF-alpha (TNF-alpha; PBMC + LPS(5 ug/ml) + test article 100 uM, individual replicates (1st, 2nd, 3rd)): 865.0 and 783.0 and 823.5
MFI, Bead name: TNF-alpha (TNF-alpha; PBMC + test article 0.01 uM, no LPS, Mean): 5.5
MFI, Bead name: TNF-alpha (TNF-alpha; PBMC + test article 0.01 uM, no LPS, individual replicates (1st, 2nd)): 5.0 and 6.0
MFI, Bead name: TNF-alpha (TNF-alpha; PBMC + test article 0.1 uM, no LPS, Mean): 6.0
MFI, Bead name: TNF-alpha (TNF-alpha; PBMC + test article 0.1 uM, no LPS, individual replicates (1st, 2nd)): 5.0 and 7.0
MFI, Bead name: TNF-alpha (TNF-alpha; PBMC + test article 1 uM, no LPS, Mean): 7.5
MFI, Bead name: TNF-alpha (TNF-alpha; PBMC + test article 1 uM, no LPS, individual replicates (1st, 2nd)): 7.0 and 8.0
MFI, Bead name: TNF-alpha (TNF-alpha; PBMC + test article 10 uM, no LPS, Mean): 18.0
MFI, Bead name: TNF-alpha (TNF-alpha; PBMC + test article 10 uM, no LPS, individual replicates (1st, 2nd)): 29.0 and 7.0
MFI, Bead name: TNF-alpha (TNF-alpha; PBMC + test article 100 uM, no LPS, Mean): 22.3
MFI, Bead name: TNF-alpha (TNF-alpha; PBMC + test article 100 uM, no LPS, individual replicates (1st, 2nd)): 30.5 and 14.0
MFI (IL-1 alpha; PBMC + LPS(5 ug/ml) + YY101 0.001 uM): 504.5 and 553.0 and 496.0 and 517.8
MFI (IL-1 alpha; PBMC + LPS(5 ug/ml) + YY101 0.01 uM): 613.0 and 572.0 and 584.0 and 589.7
MFI (IL-1 alpha; PBMC + LPS(5 ug/ml) + YY101 0.1 uM): 593.0 and 580.0 and 581.0 and 584.7
MFI (IL-1 alpha; PBMC + LPS(5 ug/ml) + YY101 1 uM): 538.5 and 506.0 and 515.5 and 520.0
MFI (IL-1 alpha; PBMC + LPS(5 ug/ml) + YY101 10 uM): 568.5 and 565.0 and 582.5 and 572.0
MFI (IL-1 alpha; PBMC + LPS(5 ug/ml) + YY101 100 uM): 816.0 and 762.0 and 759.0 and 779.0
MFI (IL-1 alpha; PBMC + YY101 0.01 uM (second group so labelled), no LPS): −1.0 and 1.0 and 0.0
MFI (IL-1 alpha; PBMC + YY101 0.01 uM, no LPS): −1.0 and 1.0 and 0.0
MFI (IL-1 alpha; PBMC + YY101 1 uM, no LPS): 1.0
MFI (IL-1 alpha; PBMC + YY101 10 uM, no LPS): 20.0 and 2.0 and 11.0
MFI (IL-1 alpha; PBMC + YY101 100 uM, no LPS): 4.0 and 1.0 and 2.5
MMP-9 MFI (MMP-9; PBMC + 0.01 uM, Mean): 1510.3
MMP-9 MFI (MMP-9; PBMC + 0.01 uM, single replicates): 1408.5 and 1612.0
MMP-9 MFI (MMP-9; PBMC + 0.1 uM, Mean): 1525.5
MMP-9 MFI (MMP-9; PBMC + 0.1 uM, single replicates): 1206.5 and 1844.5
MMP-9 MFI (MMP-9; PBMC + 1 uM, Mean): 1525.0

Several values for one entry are separate records, joined by “and”; a condition that tells them apart may be missing. Equal values may be shown once. Where no unit stands, none is given here, and values compare only within one read-out. Where a SMILES comes first, the peptide text is derived from it. [ ]: non-standard residue; d: D form. Hyp = O=C(O)[C@@H]1C[C@@H](O)CN1
